# Measurements as given in PubChem BioAssay AID1347426 (Functional Genomics Laboratory (NCATS/FGL), 2020).
# About 1,400 (4.5%) of roughly 31,000 sequences were called active.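 How the source made its calls: active means median seed-adjusted z-score above 1 or below -1; inactive means the rest.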 Some of the results follow.
# Test: Novel Modifiers of Survival Motor Neuron (SMN) Protein: Gene Identification via Genome-wide siRNA Screen;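 further: luminescence tracks full-length SMN protein made from the SMN2 reporter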
# Conditions: HEK293T SMN2-luciferase reporter, siRNA knockdown, 72 h; actives lie on both sides
# Summary of the method: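 HEK293T cells stably expressing an SMN2 splicing/cDNA-luciferase reporter were reverse-transfected with a druggable-genome siRNA library and read by luminescence at 72 hours; hits defined by MAD score above 1.0 or below -1.0.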
row,Sequence,median seed-adjusted z-score
1,GAAGAAAAUGAAUCGAGAATT against HOXA10,inactive: -0.112
2,GGAUUGUUACAGUUCAGAATT against DDX58,inactive: -0.113
3,CAGCAAUUCUUAGUCUACUTT against FGG,inactive: -0.043
4,CGGCACUUUACUUCACAUATT against HMOX2,inactive: 0
5,AUAUAUCUGCUGUACAUCATT against TRPV6,inactive: -0.511
6,GCGUGAUCCCUUUACAGUUTT against GFPT1,inactive: 0.416
7,AGAUAUCCAUCAUGCACUUTT against GPR77,inactive: 0
8,GGCUGGAAAACAUUCCCAATT against SLITRK1,inactive: 0.215
9,CCAGUUUAUUGGAAACCGATT against NOP56,inactive: 0.307
10,CUCAAGGGCUGAAAAUAAATT against S100A6,inactive: -0.264
11,CUCCUACAUUUCAAGCAUATT against ALG8,inactive: -0.0604
12,GCCCUUUCAUCUCACAGAUTT against ASNA1,inactive: 0.357
13,CAUCCAUUCUACAUCCGUATT against VHL,inactive: -0.0797
14,GCAACGAAGACAUAAGAGATT against STX18,inactive: -0.151
15,GAUCCGCACGGACUGCUUUTT against ACVRL1,inactive: -0.361
16,GGCUUGAAAAGUAACGAAUTT against ZNF229,inactive: -0.497
17,GGAUUAUUCCUACCUAAUUTT against CDYL2,inactive: -0.379
18,CCAGUGUACUCAGUCUAUUTT against STAM2,inactive: -0.24
19,GACAAAUGUUUGGUCAAUUTT against A2BP1,active: 1.17
20,GCACGUUUGAGUACGAAUATT against SFPQ,active: -1.15
21,AGAUCUUCAACUUGAUGAATT against RGS14,inactive: 0.655
22,GCAGAAUUACAAGACAAGATT against VWA5A,inactive: 0
23,AGUGCGUGAAUGUAUGUAATT against RASSF1,inactive: -0.719

row,Sequence,median seed-adjusted z-score
1,CCAUCCUGAUAAGAACCCATT against DNAJA1,inactive: -0.00548
2,GCAAUGAAGUUAAAUGAGUTT against GSTO1,inactive: 0.188
3,CCCUCGGGAUCACACUUAUTT against MFSD1,inactive: -0.0833
4,CAGUCUACCUCGAACGCAUTT against USP42,inactive: -0.0125
5,GACCUUUGGUCAGAGCAGATT against ZNF506,inactive: -0.235
6,GCUCAGAUCCCUUCCGACATT against LMX1A,inactive: 0.15
7,GGAUAUAAAAUUCGCUGUATT against BBS2,inactive: 0
8,GGAACCUCCUGUACGAGUATT against SARS2,inactive: 0.524
9,GUACAUAGAUGAUUUACCATT against TM9SF3,inactive: -0.267
10,GCAAAGUCUAUGUUAGGUATT against GALNTL5,inactive: -0.363
11,GGCAAACUGACUCACGUUATT against ATP1B4,inactive: 0.664
12,CAUCUGCACUCACAAAUCATT against CBFA2T2,inactive: -0.201
13,CGAUGCCCAUGACUAUGUATT against ST6GALNAC2,inactive: 0
14,GCGACGACUUUGACUGGUUTT against CHPF,inactive: 0.248
15,GAUUAUACAUAUUUCGCAATT against BRCA2,inactive: 0
16,GAGGUGCAGCGGUUCAUCATT against CYP2W1,inactive: -0.0986
17,GCUCGGCAUCUGUUGGUUATT against SIRT3,inactive: -0.341
18,CAACUAUCAUGGACAUUCATT against FXYD5,inactive: -0.0885
19,GGGAUGUAAUAACAGCAUUTT against GDE1,inactive: -0.256
20,CCAACAUCGUGGAGAAGUUTT against TRIM8,inactive: -0.296
21,GCAUUGGGAUAGAUAAAUUTT against ADK,inactive: 0.198
22,GAAUCGUCAAUGUCAAAAUTT against ADAM12,inactive: -0.343
23,CAGUGUUCCUUUGACCUGATT against ZNF384,inactive: -0.132

# Quoted from the results shown (17 entries):
row,Sequence,median seed-adjusted z-score
7,GGAUAUAAAAUUCGCUGUATT against BBS2,inactive: 0
8,GGAACCUCCUGUACGAGUATT against SARS2,inactive: 0.524
9,GUACAUAGAUGAUUUACCATT against TM9SF3,inactive: -0.267
10,GCAAAGUCUAUGUUAGGUATT against GALNTL5,inactive: -0.363
11,GGCAAACUGACUCACGUUATT against ATP1B4,inactive: 0.664
12,CAUCUGCACUCACAAAUCATT against CBFA2T2,inactive: -0.201
13,CGAUGCCCAUGACUAUGUATT against ST6GALNAC2,inactive: 0
14,GCGACGACUUUGACUGGUUTT against CHPF,inactive: 0.248
15,GAUUAUACAUAUUUCGCAATT against BRCA2,inactive: 0
16,GAGGUGCAGCGGUUCAUCATT against CYP2W1,inactive: -0.0986
17,GCUCGGCAUCUGUUGGUUATT against SIRT3,inactive: -0.341
18,CAACUAUCAUGGACAUUCATT against FXYD5,inactive: -0.0885
19,GGGAUGUAAUAACAGCAUUTT against GDE1,inactive: -0.256
20,CCAACAUCGUGGAGAAGUUTT against TRIM8,inactive: -0.296
21,GCAUUGGGAUAGAUAAAUUTT against ADK,inactive: 0.198
22,GAAUCGUCAAUGUCAAAAUTT against ADAM12,inactive: -0.343
23,CAGUGUUCCUUUGACCUGATT against ZNF384,inactive: -0.132

# The results go on:

row,Sequence,median seed-adjusted z-score
1,GAGUUAGCACAAUAGGUUATT against SOX5,inactive: 0.123
2,GGCAAGCAGUUCAACCACATT against ZBTB12,inactive: 0.0993
3,GCUUAUCUGAUACAAGGAATT against ZFP37,inactive: -0.305
4,GAGUUCUACUUGUCCAAUUTT against ZDHHC20,inactive: -0.936
5,GAGUAGCUCCAAUUCCGAUTT against MYT1,inactive: -0.292
6,CCAUGAUCCUGGAGGAUGATT against ZSCAN2,inactive: -0.428
7,CUGCUUGGGUGAUAGAUAATT against RTN4IP1,inactive: -0.00582
8,GAAGAAUUCGGGUGGAUUATT against TRA2A,inactive: -0.187
9,CUUCUGAUCUCAUUCAACATT against ZNF571,inactive: 0.175
10,GCAUUGUGGAGAAUGAGUATT against FGFR1,inactive: -0.562
11,CCCUUUCAAUAGACAGUGUTT against PRDX6,inactive: -0.0302
12,GCAUGUGGAAUUACAUGUATT against GRIK4,inactive: 0.249
13,GGAUACACCUUAGCAACCATT against ZNF642,inactive: 0.169
14,GGGUGAUAUUGUUCGAAUATT against ATP11B,inactive: 0.0036
15,CAUCGUUCGUUACUAUGAUTT against NEK2,inactive: -0.276
16,GAGUUAAUAUUGCCCAUUATT against NRXN2,inactive: -0.485
17,GACUUACCAGAGGUGCAAATT against ZNF638,inactive: 0.63
18,CCAGCAUCCGGUACUUUGATT against CORO1B,inactive: 0.405
19,CCACCAAGAUGUUAUCUGATT against KCNJ3,inactive: -0.0229
20,ACAUCGUAGUGGGACGAAUTT against EXOSC2,inactive: -0.0798
21,CCUUGUCUCUUCCACCUGATT against PHC1,inactive: -0.615
22,CCCACGUCGUGAUCUACGATT against MPST,inactive: -0.181
